Measurements as given in paper PMC3558502, “Acaricide, Fungicide and Drug Interactions in Honey Bees (Apis mellifera)” (PLoS ONE, 2013).

How the values were obtained:
[1] = system: honey bees (Apis mellifera); test: Lethal dose bioassay: antimicrobial drugs fed in sucrose syrup, then topical acaricide dose series, 2010
honey bees = settings: reported concentrations of acaricides in bees; cited from earlier work
[2] = oral pre-treatment: oxytetracycline

SMILES	intercept ± SE of log-probit dose-response line ([1]; oral pre-treatment: control)	slope ± SE of log-probit dose-response line ([1]; oral pre-treatment: control)	intercept ± SE of log-probit dose-response line ([1]; oral pre-treatment: fumagillin)	slope ± SE of log-probit dose-response line ([1]; oral pre-treatment: fumagillin)	intercept ± SE of log-probit dose-response line [1, 2]	slope ± SE of log-probit dose-response line [1, 2]	intercept ± SE of log-probit dose-response line ([1]; oral pre-treatment: tylosin)	slope ± SE of log-probit dose-response line ([1]; oral pre-treatment: tylosin)	reported exposure, max. (honey bees)	reported mean exposure (honey bees)
Cc1ccc(/N=C/N(C)/C=N/c2ccc(C)cc2C)c(C)c1 [amitraz]	-2.21 ± 0.33	2.99 ± 0.38	-2.21 ± 0.34	3.75 ± 0.52	-2.38 ± 0.30	4.23 ± 0.54	-2.16 ± 0.22	3.29 ± 0.29	9.04^a µg/bee	0.15^a µg/bee
CC(C)[C@@H](Nc1ccc(C(F)(F)F)cc1Cl)C(=O)OC(C#N)c1cccc(Oc2ccccc2)c1 (stereo partly shown) [tau-fluvalinate]	-1.91 ± 0.13	1.98 ± 0.14	-1.36 ± 0.16	1.99 ± 0.22	-2.48 ± 0.19	2.68 ± 0.21	-2.37 ± 0.32	2.32 ± 0.34	0.70^a µg/bee	0.04^a µg/bee
CCOP(=S)(OCC)Oc1ccc2c(C)c(Cl)c(=O)oc2c1 [coumaphos]									3.20^b µg/bee	0.09^a µg/bee

Marks after values point to notes of the source that are not given here.
